# The other results are listed elsewhere or left out.
# Protein sequences, listed by entry. Tags and fused reporters are not part of them.
# UniProt Q0JBA9, entry or part of it: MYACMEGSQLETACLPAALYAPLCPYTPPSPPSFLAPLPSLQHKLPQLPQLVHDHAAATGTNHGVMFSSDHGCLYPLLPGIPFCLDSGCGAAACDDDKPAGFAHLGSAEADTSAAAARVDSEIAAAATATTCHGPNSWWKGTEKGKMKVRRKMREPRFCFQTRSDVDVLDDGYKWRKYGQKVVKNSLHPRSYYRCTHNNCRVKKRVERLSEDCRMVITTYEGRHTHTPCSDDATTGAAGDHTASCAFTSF
# Biological target: OsWRKY34 (Oryza sativa, UniProt Q0JBA9 1-250)
# Assay: protein-binding microarray (RPBM); PBS, 2% BSA, 51.3 ng/ul salmon testes DNA, 50 uM zinc acetate, 200 nM TF, 25 C, 1 h; high values mean tight binding
# Settings: protein: recombinant; tags: N-terminal polyhistidine and DsRed monomer fusion (pET32a); label: CyDye5-dUTP incorporated in the synthesized complementary strand; 3' TTTTT single-stranded linker to array surface; dsDNA, one strand shown
# How it was run: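 Transcription factors were made in E. coli BL21-CodonPlus as N-terminal fusions to a polyhistidine tag and DsRed, then purified on Ni–NTA. After primer extension with Cy5-dUTP and blocking with 2% BSA, a custom Agilent array was exposed for 1 h at 25 °C to 200 nM protein in PBS, 2% BSA, salmon testes DNA and 50 µM zinc acetate. Washed arrays were scanned on an Axon 4000B, and the binding signal is per-feature fluorescence intensity in arbitrary units.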
row,Sequence,binding signal
1,TATCCTCTAGAGCTACATTTTCTCTCACCACACGCTATTTCGGAGTCACCTAGTGCAG,10400 fluorescence intensity (a.u.)
2,GCCGCCGCCACAAACCTCCGCCCGTTTCGCCCTGATCTCTCGGAGTCACCTAGTGCAG,11100 fluorescence intensity (a.u.)
3,GTCGCAATCACCGAAGCGCACCTCGATCTCGGTCCAATCTCGGAGTCACCTAGTGCAG,9170 fluorescence intensity (a.u.)
4,TTTCCAAGGGCCTAAGGGTTTCTTCTGTACAACAGTGGGGCGGAGTCACCTAGTGCAG,8530 fluorescence intensity (a.u.)
5,CGATCGCCTCCACCACCCGGAGCATCTCCTCGTACTCCTCCGGAGTCACCTAGTGCAG,8400 fluorescence intensity (a.u.)
6,CTGCATTTCGTCCCTGTTCTGCCGCCGACGAGCGACGATGCGGAGTCACCTAGTGCAG,8860 fluorescence intensity (a.u.)
7,CTTCTCCGGCTACGCGCCTCTCCCAACGAACGCCAACCCACGGAGTCACCTAGTGCAG,8750 fluorescence intensity (a.u.)
8,GCCAGTTAGGGACCTAGGGACTTGGGTTGGGCGGGAACTTCGGAGTCACCTAGTGCAG,14100 fluorescence intensity (a.u.)
9,TCACATGCATCCCTGACACGTCAGTATTTCGTTCCATAGCCGGAGTCACCTAGTGCAG,9190 fluorescence intensity (a.u.)
10,ACCTCTCGTAGCCTGACATGATCACATCTCTCGTCATTCCCGGAGTCACCTAGTGCAG,13700 fluorescence intensity (a.u.)
11,GAGGCCTTCTAGCTCCACATTTTGTTTTGCTTTTCTCAGTCGGAGTCACCTAGTGCAG,9850 fluorescence intensity (a.u.)
12,GCCGTGATGAGTCCGAACTCGCGTTGACCTATTGACTCGTCGGAGTCACCTAGTGCAG,11000 fluorescence intensity (a.u.)
13,AACCTCCCGTGTCGCGCGCGTCCATGGCGGCTACTAGTAGCGGAGTCACCTAGTGCAG,11000 fluorescence intensity (a.u.)
14,CTACTTTCATACTTATAAGATTTTACACCAAAGCTTTTTTCGGAGTCACCTAGTGCAG,8750 fluorescence intensity (a.u.)
15,CCACATAATTCCTATTTCCCATTCTCTTGCACTTATTCCACGGAGTCACCTAGTGCAG,8130 fluorescence intensity (a.u.)
16,GCTTACCAGAGTATACTAACATGTCTTCTAGATTATAATACGGAGTCACCTAGTGCAG,9600 fluorescence intensity (a.u.)
17,CTATTTTTTGTTGAAGTTTTTTGCACGGTCTAATTTCAAACGGAGTCACCTAGTGCAG,11600 fluorescence intensity (a.u.)
18,TCATTAATTTCATGTCTCCTCTAATTTCCTCCTGAACCCTCGGAGTCACCTAGTGCAG,8980 fluorescence intensity (a.u.)
19,GCACTTCTTCCACTTCTTCTATGATATGTTGAACATCATCCGGAGTCACCTAGTGCAG,10300 fluorescence intensity (a.u.)
20,GATCCTATTCTGACCTCGATATATATGTGGAATCGTTTTGCGGAGTCACCTAGTGCAG,9470 fluorescence intensity (a.u.)
21,TTATTATTTGTATTAATTTATTAGGATTTCTCTCATGCTTCGGAGTCACCTAGTGCAG,8200 fluorescence intensity (a.u.)

# Some values from the results shown.
# binding signal, GCACTTCTTCCACTTCTTCTATGATATGTTGAACATCATCCGGAGTCACCTAGTGCAG is entered as 10300 fluorescence intensity (a.u.)
# binding signal, GCCGCCGCCACAAACCTCCGCCCGTTTCGCCCTGATCTCTCGGAGTCACCTAGTGCAG is entered as 11100 fluorescence intensity (a.u.)

# Additional results follow.

row,Sequence,binding signal
1,GACTCGCTCTCCGCCTCATCTCCCTCTCGTCAATCTCTCTCGGAGTCACCTAGTGCAG,9730 fluorescence intensity (a.u.)
2,TCCCGTGTGCCCTTGTCATTATTCTTCACCCTTTATCAGTCGGAGTCACCTAGTGCAG,11900 fluorescence intensity (a.u.)
3,TTAGCTTACCAACCCACTCTCCTCCTCCACTCACAGAAACCGGAGTCACCTAGTGCAG,8450 fluorescence intensity (a.u.)
4,TTCCTCTTCTCTTCTCGTCTCTTGTAGTAGTATATATTTACGGAGTCACCTAGTGCAG,8430 fluorescence intensity (a.u.)
5,CGCCGCCGCCGCCATTTCTGACTCTTTCTCCGCGGCGCGTCGGAGTCACCTAGTGCAG,9090 fluorescence intensity (a.u.)
6,TACATGTTGTACTCTGCCTTGTCTCTAATCTACGTTAATCCGGAGTCACCTAGTGCAG,11400 fluorescence intensity (a.u.)
7,GCGGTCTCCTCTCCTCCCTCCCTGCTCGCGCTCTCAGTCTCGGAGTCACCTAGTGCAG,9970 fluorescence intensity (a.u.)
8,TTTTCTTGTGTGGCCAAGATCTGATTTTTTTTCTCCTTTTCGGAGTCACCTAGTGCAG,11200 fluorescence intensity (a.u.)
9,CTGCCTGCCTGCTGCCTCTCTCGTCGTCTGCTTGCCTACCCGGAGTCACCTAGTGCAG,9250 fluorescence intensity (a.u.)
10,TGTTCTTGTTCTTATTATTTCATTTACCTGCTTTTTGATTCGGAGTCACCTAGTGCAG,16300 fluorescence intensity (a.u.)
11,TCCATACTTATTCACTGGATTTGTTTCTACTGATTTTTCCCGGAGTCACCTAGTGCAG,8230 fluorescence intensity (a.u.)
12,CATTGACTTTTTTAAACATGTTTGACTGTTCGTCTTATTCCGGAGTCACCTAGTGCAG,11500 fluorescence intensity (a.u.)
13,CGCTCCAGCCGCCGCCGTCGAGCCGTGTCGCCCCTGAGAACGGAGTCACCTAGTGCAG,8150 fluorescence intensity (a.u.)
14,AGATGTCAGGTTGTTAGGGTTGGGAATTCAGGTCAGATATCGGAGTCACCTAGTGCAG,10000 fluorescence intensity (a.u.)
15,GGGTGGGCAGTTTTTGGTGCACCCATGGGTTGCCACTACTCGGAGTCACCTAGTGCAG,12700 fluorescence intensity (a.u.)
16,GCCCTAACCATCACCACACATGAACCAAATGGAGCAAGATCGGAGTCACCTAGTGCAG,8530 fluorescence intensity (a.u.)
17,AATTCTCACTTGACTCATGATTATCATCTCTACTATCGAACGGAGTCACCTAGTGCAG,9990 fluorescence intensity (a.u.)
18,ACGCAGGATCCGAGTCAGTCAACGCATTCCAAGGGAGGGCCGGAGTCACCTAGTGCAG,8120 fluorescence intensity (a.u.)
19,ATTCTCTATCGTTTTGACCACAATGTATATTACTGTTTATCGGAGTCACCTAGTGCAG,8280 fluorescence intensity (a.u.)
20,GAAATACTGTAGGAGGTTCTATTGTGTATGCCATTTTATTCGGAGTCACCTAGTGCAG,8940 fluorescence intensity (a.u.)
21,TCCGCCCGCTTCTCTGGTTTCTCGGCGGTGTCTTTTACTCCGGAGTCACCTAGTGCAG,11600 fluorescence intensity (a.u.)

# Reference: PMC7819943, “Rice protein-binding microarrays: a tool to detect cis-acting elements near promoter regions in rice”
